Values from PubChem BioAssay AID1259405 (NCATS, 2018).

Screen: 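Mouse-designed siRNAs used to find CHO productivity engineering targets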 (primary screen)
System: Chinese hamster CHO-K1 ovary cells with stable secreted eGFP expression
Reagent: single siRNA against mouse genes, 0.8 pmol siRNA per well (2 µl of 400 nM stock)
Duration: 3 days
Measured: 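Percent of the per-plate non-targeting control median for intracellular GFP per well by laser scanning cytometry and for cell viability by ATP luminescence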
Direction: GFP, % of control: higher = more GFP per well, higher productivity; viability (ATP), % of control: higher = more viable cells (more ATP)
Hit rule: 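a knock-down is called active if GFP reaches 120% or more of non-targeting control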
The whole screen tested about 50,000 reagents; below is a random part of them. About 4,000 of all reagents (8%) were called active. 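Mouse siRNA library applied to hamster cells; one well for each siRNA.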 The numbers tell different reagents against one gene apart.

With knock-down of Ms4a19 (membrane-spanning 4-domains, subfamily A, member 19) #1, the screen gave GFP, % of control 82.1; viability (ATP), % of control 77.1; inactive.
For Ms4a19 (membrane-spanning 4-domains, subfamily A, member 19) #2, the entry reads GFP, % of control 82.9; viability (ATP), % of control 85.3; inactive.
After knock-down of Ms4a19 (membrane-spanning 4-domains, subfamily A, member 19) #3 the results were GFP, % of control 65; viability (ATP), % of control 73.4; inactive.
Stfa3 (stefin A3) #1 showed GFP, % of control 61.7; viability (ATP), % of control 37.7; inactive.
With knock-down of Stfa3 (stefin A3) #2 the results were GFP, % of control 85; viability (ATP), % of control 70.1; inactive.
For Stfa3 (stefin A3) #3 the deposit lists GFP, % of control 92.9; viability (ATP), % of control 80.1; inactive.
Silencing of Nr1d2 (nuclear receptor subfamily 1, group D, member 2) #1 came out at: GFP, % of control 96.9; viability (ATP), % of control 86.8; inactive.
Nr1d2 (nuclear receptor subfamily 1, group D, member 2) #2 scored GFP, % of control 107; viability (ATP), % of control 92; inactive.
For Spint2 (serine protease inhibitor, Kunitz type 2) #1, the values are GFP, % of control 81.5; viability (ATP), % of control 107; inactive.
Spint2 (serine protease inhibitor, Kunitz type 2) #2 gave GFP, % of control 117; viability (ATP), % of control 61.3; inactive.
Knock-down of Spint2 (serine protease inhibitor, Kunitz type 2) #3 resulted in: GFP, % of control 44.9; viability (ATP), % of control 24.2; inactive.
Knock-down of Specc1l #1 came out at: GFP, % of control 94.3; viability (ATP), % of control 83.6; inactive.
After knock-down of Specc1l #2 the results were GFP, % of control 117; viability (ATP), % of control 53.1; inactive.
With knock-down of Specc1l #3, the screen gave GFP, % of control 63.9; viability (ATP), % of control 75.4; inactive.
Silencing of Prl7d1 (prolactin family 7, subfamily d, member 1) #1 gave: GFP, % of control 118; viability (ATP), % of control 87.4; inactive.
Against Prl7d1 (prolactin family 7, subfamily d, member 1) #2, the entry reads GFP, % of control 41.5; viability (ATP), % of control 64.8; inactive.
With knock-down of Prl7d1 (prolactin family 7, subfamily d, member 1) #3 the results were GFP, % of control 62.6; viability (ATP), % of control 70.3; inactive.
Depletion of Slc66a2 #1 resulted in: GFP, % of control 50.9; viability (ATP), % of control 79.2; inactive.
Slc66a2 #2 showed GFP, % of control 71.8; viability (ATP), % of control 54.8; inactive.
Slc66a2 #3 gave GFP, % of control 44.7; viability (ATP), % of control 51.1; inactive.
Against Slco1a1 #1 the deposit lists GFP, % of control 165; viability (ATP), % of control 67.9; active.
Against Slco1a1 #2, the entry reads GFP, % of control 60.2; viability (ATP), % of control 80.5; inactive.
Against Slco1a1 #3 the deposit lists GFP, % of control 55.6; viability (ATP), % of control 92.6; inactive.
Elovl5 (ELOVL fatty acid elongase 5) #1 scored GFP, % of control 130; viability (ATP), % of control 94.7; active.
Against Elovl5 (ELOVL fatty acid elongase 5) #2, the values are GFP, % of control 108; viability (ATP), % of control 184; inactive.
With knock-down of Elovl5 (ELOVL fatty acid elongase 5) #3 the results were GFP, % of control 80.2; viability (ATP), % of control 122; inactive.
Against Tbc1d14 (TBC1 domain family, member 14) #1, the entry reads GFP, % of control 104; viability (ATP), % of control 74.8; inactive.
For Tbc1d14 (TBC1 domain family, member 14) #2, the values are GFP, % of control 51.4; viability (ATP), % of control 54; inactive.
For Tbc1d14 (TBC1 domain family, member 14) #3, the values are GFP, % of control 74.8; viability (ATP), % of control 63.1; inactive.

4 entries already listed, arranged by “GFP, % of control”, low to high.
Slc66a2 #3 → GFP, % of control: 44.7; viability (ATP), % of control: 51.1; call: inactive
Slc66a2 #1 → GFP, % of control: 50.9; viability (ATP), % of control: 79.2; call: inactive
Prl7d1 (prolactin family 7, subfamily d, member 1) #3 → GFP, % of control: 62.6; viability (ATP), % of control: 70.3; call: inactive
Slc66a2 #2 → GFP, % of control: 71.8; viability (ATP), % of control: 54.8; call: inactive
